# In the supplement of paper PMC9015667:
# Where a name gives a salt, the structure may show the parent alone. The list shows a part of the results. Single values are uncertain, as repeats are few or missing.
# Key:
# Test in all cases: reduction in cell viability relative to untreated/vehicle; higher = more growth inhibition
# Settings in all cases: 200 nM; 72 h
# M229P = tested on: M229P (parental melanoma line)
# M229R = tested on: M229R (matched melanoma line resistant to BRAF inhibitors)
# M238P = tested on: M238P (parental melanoma line)
# M238R = tested on: M238R (matched melanoma line resistant to BRAF inhibitors)
# M249P = tested on: M249P (parental melanoma line)
# M249R = tested on: M249R (matched melanoma line resistant to BRAF inhibitors)
# UACC62P = tested on: UACC62P (parental melanoma line)
# UACC62R = tested on: UACC62R (matched melanoma line resistant to BRAF inhibitors)
Compound,reduction in cell viability (M229P),reduction in cell viability (M229R),reduction in cell viability (M238P),reduction in cell viability (M238R),reduction in cell viability (M249P),reduction in cell viability (M249R),reduction in cell viability (UACC62P),reduction in cell viability (UACC62R)
CC(C(C)N1CC(=O)NC(=O)C1)N1CC(=O)NC(=O)C1 (stereo not given),< 0%,< 0%,< 0%,< 0%,< 0%,< 0%,< 0%,< 0%
Cc1ccc(C(=O)N(CCCN)[C@@H](c2nc3cc(Cl)ccc3c(=O)n2Cc2ccccc2)C(C)C)cc1 [Ispinesib],5.71%,1.27%,58.7%,56.1%,30%,33.7%,29.2%,76.2%
COc1ccc(CC2SC(=O)NC2=O)cc1C(=O)NCc1ccc(C(F)(F)F)cc1 (stereo not given),< 0%,< 0%,24.8%,< 0%,< 0%,< 0%,< 0%,< 0%
CC(=O)OCCN1C(=O)c2c(C)nc3ccc(S(=O)(=O)N4CCOCC4)cc3c2C1=O [Ivachtin],< 0%,< 0%,< 0%,< 0%,< 0%,< 0%,< 0%,< 0%
CCO[C@@H]1OC(=O)C[C@@H]1NC(=O)[C@@H]1CCCN1C(=O)[C@@H](NC(=O)c1ccc(N)c(Cl)c1)C(C)(C)C,< 0%,< 0%,< 0%,< 0%,< 0%,< 0%,< 0%,< 0%
COc1nccc(-c2c(-c3ccc(F)cc3)ncn2C2CCC(O)CC2)n1 (stereo not given),< 0%,< 0%,< 0%,< 0%,< 0%,< 0%,< 0%,< 0%
CN(C)CCCC1(c2ccc(F)cc2)OCc2cc(C#N)ccc21 (stereo not given) [Citalopram hydrobromide],< 0%,< 0%,< 0%,< 0%,< 0%,< 0%,< 0%,< 0%
Cc1cc(=O)oc2cc(O)ccc12 [4-methylumbelliferone],< 0%,< 0%,< 0%,< 0%,< 0%,< 0%,< 0%,< 0%
Clc1ccc(Nc2nnc(Cc3ccncc3)c3ccccc23)cc1 [Vatalanib dihydrochloride],< 0%,< 0%,< 0%,< 0%,< 0%,< 0%,< 0%,< 0%
Cc1c(CN2CCN(S(C)(=O)=O)CC2)sc2c(N3CCOCC3)nc(-c3cnc(N)nc3)nc12,15.5%,24.2%,57.4%,44.1%,22.2%,27.8%,42.6%,42.2%
Cc1c(C)c2c(c(C)c1O)CCC(C)(COc1ccc(CC3SC(=O)NC3=O)cc1)O2 (stereo not given) [Troglitazone],< 0%,< 0%,< 0%,< 0%,< 0%,< 0%,< 0%,< 0%
CN(C)c1ccc(C(=C2C=CC(=[N+](C)C)C=C2)c2ccc(N(C)C)cc2)cc1 [Methylrosaniline chloride],76.7%,63%,70.6%,75.3%,72.6%,76.2%,62.6%,90.2%
O=C1NC(=O)C(=Cc2ccc(-c3ccc(F)cc3)o2)S1 (stereo in doubt),< 0%,< 0%,< 0%,< 0%,< 0%,< 0%,2.96%,< 0%
C[Se]CC[C@H](N)C(=O)O [Selenomethionine],< 0%,< 0%,< 0%,< 0%,< 0%,< 0%,< 0%,< 0%
CC[C@H]1OC(=O)[C@H](C)C(=O)[C@H](C)[C@@H](O[C@@H]2O[C@H](C)C[C@H](N(C)C)[C@H]2O)[C@](C)(OC)C[C@@H](C)C(=O)[C@H](C)[C@H]2N(CCCCn3cnc(-c4cccnc4)c3)C(=O)O[C@]12C [Telithromycin],< 0%,< 0%,< 0%,< 0%,< 0%,< 0%,< 0%,< 0%
CC1(C)CC(=O)c2c(C(F)(F)F)nn(-c3ccc(C(N)=O)c(N[C@H]4CC[C@H](O)CC4)c3)c2C1,56.1%,50%,61.5%,62.3%,40%,39.1%,78.6%,56.5%
Nc1nc(=O)c2c([nH]1)NCC(CNc1ccc(C(=O)N[C@@H](CCC(=O)O)C(=O)O)cc1)N2C=O (stereo not given in full) [Calcium folinate],< 0%,< 0%,< 0%,< 0%,< 0%,< 0%,< 0%,< 0%
COc1cc2c(cc1OC)[C@@H]1C(=O)c3ccc4c(c3O[C@@H]1CO2)C=CC(C)(C)O4 [Deguelin],< 0%,< 0%,< 0%,< 0%,< 0%,< 0%,< 0%,< 0%

Compound,reduction in cell viability (M229P),reduction in cell viability (M229R),reduction in cell viability (M238P),reduction in cell viability (M238R),reduction in cell viability (M249P),reduction in cell viability (M249R),reduction in cell viability (UACC62P),reduction in cell viability (UACC62R)
COc1ccc2[nH]c([S+]([O-])Cc3ncc(C)c(OC)c3C)nc2c1 (stereo not given) [Omeprazole],< 0%,< 0%,< 0%,< 0%,< 0%,< 0%,< 0%,< 0%
C=CCc1cccc(/C=N/NC(=O)CN2CCN(Cc3ccccc3)CC2)c1O,< 0%,< 0%,< 0%,< 0%,< 0%,< 0%,< 0%,< 0%
CNC(=O)[C@H](Cc1c[nH]c2ccccc12)NC(=O)[C@@H](CC(=O)NO)CC(C)C,< 0%,< 0%,< 0%,< 0%,< 0%,< 0%,1.84%,< 0%
c1ccc(-c2oc3ncnc(NC[C@@H]4CCCO4)c3c2-c2ccccc2)cc1,< 0%,< 0%,< 0%,< 0%,< 0%,13%,3.83%,< 0%
Cc1ccc(C(=O)Nc2cccc(C(F)(F)F)c2)cc1-c1ccc2nc(NCCN3CCOCC3)ncc2c1,33.7%,9.21%,45.9%,< 0%,52.6%,38.4%,61.8%,22.4%
NS(=O)(=O)c1cc(C(=O)O)c(NCc2ccco2)cc1Cl [Furosemide],< 0%,2.85%,< 0%,< 0%,< 0%,< 0%,9.49%,< 0%
CCOC(=O)N[C@@H]1CC[C@@H]2[C@@H](C1)C[C@H]1C(=O)O[C@H](C)[C@H]1[C@H]2/C=C/c1ccc(-c2cccc(F)c2)cn1 [Vorapaxar],< 0%,< 0%,< 0%,< 0%,< 0%,< 0%,< 0%,< 0%
CCCCC(F)(F)[C@@]1(O)CC[C@H]2[C@@H](CC(=O)[C@@H]2CCCCCCC(=O)O)O1 [Lubiprostone],< 0%,< 0%,< 0%,< 0%,< 0%,< 0%,< 0%,< 0%
c1ccc(CNc2nc(NCc3ccccc3)c3ccccc3n2)cc1,< 0%,< 0%,< 0%,< 0%,< 0%,< 0%,< 0%,< 0%
Cc1onc(-c2ccccc2Cl)c1C(=O)N[C@@H]1C(=O)N2[C@@H]1SC(C)(C)[C@@H]2C(=O)O [Sodium cloxacillin],< 0%,< 0%,< 0%,< 0%,< 0%,< 0%,5.91%,< 0%
CN[C@@H](C)[C@H]1[C@H](O)C[C@@]2(C)[C@@H]3CC[C@H]4C(C)(C)[C@@H](NC)CC[C@@]45C[C@@]35CC[C@]12C [Cyclovirobuxin D],< 0%,< 0%,< 0%,< 0%,< 0%,< 0%,< 0%,< 0%
CNc1nccc(-c2cccnc2Oc2cc(C(=O)Nc3cccc(C(F)(F)F)c3)ccc2C)n1,26.3%,< 0%,32.3%,< 0%,22.8%,4.72%,57.5%,< 0%
C/C=C(/C(=C/C)c1ccc(O)cc1)c1ccc(O)cc1 [Dienestrol],< 0%,< 0%,< 0%,< 0%,< 0%,14.3%,1.64%,< 0%
COc1cc2nc(N3CCN(C(=O)c4ccco4)CC3)nc(N)c2cc1OC [Prazosin hydrochloride],< 0%,< 0%,< 0%,< 0%,< 0%,< 0%,< 0%,< 0%
CCc1c(O)cc(O)c(C(=O)c2ccc(OCCN3CCOCC3)c(OC)c2)c1CC(=O)N(CCOC)CCOC,< 0%,13.3%,4.51%,< 0%,< 0%,< 0%,39.6%,< 0%
Cn1cnc2c1c(=O)[nH]c(=O)n2C [Theobromine],< 0%,< 0%,< 0%,< 0%,< 0%,8.46%,< 0%,< 0%
CC[C@@H]1C(=O)N(C)c2cnc(Nc3ccc(C(=O)N[C@H]4CC[C@H](N5CCN(CC6CC6)CC5)CC4)cc3OC)nc2N1C(C)C [Volasertib (BI 6727)],28.1%,57%,41.4%,< 0%,26.6%,42.4%,31.1%,70.5%

# Of the compounds above, these contain a furan ring, fused or not:
Compound,reduction in cell viability (M229P),reduction in cell viability (M229R),reduction in cell viability (M238P),reduction in cell viability (M238R),reduction in cell viability (M249P),reduction in cell viability (M249R),reduction in cell viability (UACC62P),reduction in cell viability (UACC62R)
O=C1NC(=O)C(=Cc2ccc(-c3ccc(F)cc3)o2)S1 (stereo in doubt),< 0%,< 0%,< 0%,< 0%,< 0%,< 0%,2.96%,< 0%
c1ccc(-c2oc3ncnc(NC[C@@H]4CCCO4)c3c2-c2ccccc2)cc1,< 0%,< 0%,< 0%,< 0%,< 0%,13%,3.83%,< 0%
NS(=O)(=O)c1cc(C(=O)O)c(NCc2ccco2)cc1Cl [Furosemide],< 0%,2.85%,< 0%,< 0%,< 0%,< 0%,9.49%,< 0%
COc1cc2nc(N3CCN(C(=O)c4ccco4)CC3)nc(N)c2cc1OC [Prazosin hydrochloride],< 0%,< 0%,< 0%,< 0%,< 0%,< 0%,< 0%,< 0%
